# Reference: paper PMC13321232
# No constants are given. Whether binding was seen depends on the method and setting. In cells and extracts the contact can be indirect. Some binding calls cover weakened binding; strength is not graded here. Sequences can lack the tags named with a protein.
# B1: ER-cLUC (receptor, UniProt Q42371 25-976)
# chain: EEGATLLEIKKSFKDVNNVLYDWTTSPSSDYCVWRGVSCENVTFNVVALNLSDLNLDGEISPAIGDLKSLLSIDLRGNRLSGQIPDEIGDCSSLQNLDLSFNELSGDIPFSISKLKQLEQLILKNNQLIGPIPSTLSQIPNLKILDLAQNKLSGEIPRLIYWNEVLQYLGLRGNNLVGNISPDLCQLTGLWYFDVRNNSLTGSIPETIGNCTAFQVLDLSYNQLTGEIPFDIGFLQVATLSLQGNQLSGKIPSVIGLMQALAVLDLSGNLLSGSIPPILGNLTFTEKLYLHSNKLTGSIPPELGNMSKLHYLELNDNHLTGHIPPELGKLTDLFDLNVANNDLEGPIPDHLSSCTNLNSLNVHGNKFSGTIPRAFQKLESMTYLNLSSNNIKGPIPVELSRIGNLDTLDLSNNKINGIIPSSLGDLEHLLKMNLSRNHITGVVPGDFGNLRSIMEIDLSNNDISGPIPEELNQLQNIILLRLENNNLTGNVGSLANCLSLTVLNVSHNNLVGDIPKNNNFSRFSPDSFIGNPGLCGSWLNSPCHDSRRTVRVSISRAAILGIAIGGLVILLMVLIAACRPHNPPPFLDGSLDKPVTYSTPKLVILHMNMALHVYEDIMRMTENLSEKYIIGHGASSTVYKCVLKNCKPVAIKRLYSHNPQSMKQFETELEMLSSIKHRNLVSLQAYSLSHLGSLLFYDYLENGSLWDLLHGPTKKKTLDWDTRLKIAYGAAQGLAYLHHDCSPRIIHRDVKSSNILLDKDLEARLTDFGIAKSLCVSKSHTSTYVMGTIGYIDPEYARTSRLTEKSDVYSYGIVLLELLTRRKAVDDESNLHHLIMSKTGNNEVMEMADPDITSTCKDLGVVKKVFQLALLCTKRQPNDRPTMHQVTRVLGSFMLSEQPPAATDTSATLAGSCYVDEYANLKTPHSVNCSSMSASDAQLFLRFGQVISQNSE
# B2: ERL1-cLUC (receptor, UniProt C0LGW6 26-966)
# chain: MNNEGKALMAIKGSFSNLVNMLLDWDDVHNSDLCSWRGVFCDNVSYSVVSLNLSSLNLGGEISPAIGDLRNLQSIDLQGNKLAGQIPDEIGNCASLVYLDLSENLLYGDIPFSISKLKQLETLNLKNNQLTGPVPATLTQIPNLKRLDLAGNHLTGEISRLLYWNEVLQYLGLRGNMLTGTLSSDMCQLTGLWYFDVRGNNLTGTIPESIGNCTSFQILDISYNQITGEIPYNIGFLQVATLSLQGNRLTGRIPEVIGLMQALAVLDLSDNELVGPIPPILGNLSFTGKLYLHGNMLTGPIPSELGNMSRLSYLQLNDNKLVGTIPPELGKLEQLFELNLANNRLVGPIPSNISSCAALNQFNVHGNLLSGSIPLAFRNLGSLTYLNLSSNNFKGKIPVELGHIINLDKLDLSGNNFSGSIPLTLGDLEHLLILNLSRNHLSGQLPAEFGNLRSIQMIDVSFNLLSGVIPTELGQLQNLNSLILNNNKLHGKIPDQLTNCFTLVNLNVSFNNLSGIVPPMKNFSRFAPASFVGNPYLCGNWVGSICGPLPKSRVFSRGALICIVLGVITLLCMIFLAVYKSMQQKKILQGSSKQAEGLTKLVILHMDMAIHTFDDIMRVTENLNEKFIIGYGASSTVYKCALKSSRPIAIKRLYNQYPHNLREFETELETIGSIRHRNIVSLHGYALSPTGNLLFYDYMENGSLWDLLHGSLKKVKLDWETRLKIAVGAAQGLAYLHHDCTPRIIHRDIKSSNILLDENFEAHLSDFGIAKSIPASKTHASTYVLGTIGYIDPEYARTSRINEKSDIYSFGIVLLELLTGKKAVDNEANLHQLILSKADDNTVMEAVDPEVTVTCMDLGHIRKTFQLALLCTKRNPLERPTMLEVSRVLLSLVPSLQVAKKLPSLDHSTKKLQQENEVRNPDAEASQWFVQFREVISKSSI
# B3: ERL2-cLUC (receptor, UniProt Q6XAT2 28-967)
# chain: MNNEGKALMAIKASFSNVANMLLDWDDVHNHDFCSWRGVFCDNVSLNVVSLNLSNLNLGGEISSALGDLMNLQSIDLQGNKLGGQIPDEIGNCVSLAYVDFSTNLLFGDIPFSISKLKQLEFLNLKNNQLTGPIPATLTQIPNLKTLDLARNQLTGEIPRLLYWNEVLQYLGLRGNMLTGTLSPDMCQLTGLWYFDVRGNNLTGTIPESIGNCTSFEILDVSYNQITGVIPYNIGFLQVATLSLQGNKLTGRIPEVIGLMQALAVLDLSDNELTGPIPPILGNLSFTGKLYLHGNKLTGQIPPELGNMSRLSYLQLNDNELVGKIPPELGKLEQLFELNLANNNLVGLIPSNISSCAALNQFNVHGNFLSGAVPLEFRNLGSLTYLNLSSNSFKGKIPAELGHIINLDTLDLSGNNFSGSIPLTLGDLEHLLILNLSRNHLNGTLPAEFGNLRSIQIIDVSFNFLAGVIPTELGQLQNINSLILNNNKIHGKIPDQLTNCFSLANLNISFNNLSGIIPPMKNFTRFSPASFFGNPFLCGNWVGSICGPSLPKSQVFTRVAVICMVLGFITLICMIFIAVYKSKQQKPVLKGSSKQPEGSTKLVILHMDMAIHTFDDIMRVTENLDEKYIIGYGASSTVYKCTSKTSRPIAIKRIYNQYPSNFREFETELETIGSIRHRNIVSLHGYALSPFGNLLFYDYMENGSLWDLLHGPGKKVKLDWETRLKIAVGAAQGLAYLHHDCTPRIIHRDIKSSNILLDGNFEARLSDFGIAKSIPATKTYASTYVLGTIGYIDPEYARTSRLNEKSDIYSFGIVLLELLTGKKAVDNEANLHQMILSKADDNTVMEAVDAEVSVTCMDSGHIKKTFQLALLCTKRNPLERPTMQEVSRVLLSLVPSPPPKKLPSPAKVQEGEERRESHSSDTTTPQWFVQFREDISKSSL
# Columns and labels:
# Experiment in all cases: split reporter; split luciferase: nLUC and cLUC fusions coinfiltrated into Nicotiana leaves; 1 mM d-luciferin; luminescence by EMCCD camera
# [1] = molecular target: T1, PXL1-nLUC (Arabidopsis thaliana) (UniProt Q9FRS6)
# T1 sequence: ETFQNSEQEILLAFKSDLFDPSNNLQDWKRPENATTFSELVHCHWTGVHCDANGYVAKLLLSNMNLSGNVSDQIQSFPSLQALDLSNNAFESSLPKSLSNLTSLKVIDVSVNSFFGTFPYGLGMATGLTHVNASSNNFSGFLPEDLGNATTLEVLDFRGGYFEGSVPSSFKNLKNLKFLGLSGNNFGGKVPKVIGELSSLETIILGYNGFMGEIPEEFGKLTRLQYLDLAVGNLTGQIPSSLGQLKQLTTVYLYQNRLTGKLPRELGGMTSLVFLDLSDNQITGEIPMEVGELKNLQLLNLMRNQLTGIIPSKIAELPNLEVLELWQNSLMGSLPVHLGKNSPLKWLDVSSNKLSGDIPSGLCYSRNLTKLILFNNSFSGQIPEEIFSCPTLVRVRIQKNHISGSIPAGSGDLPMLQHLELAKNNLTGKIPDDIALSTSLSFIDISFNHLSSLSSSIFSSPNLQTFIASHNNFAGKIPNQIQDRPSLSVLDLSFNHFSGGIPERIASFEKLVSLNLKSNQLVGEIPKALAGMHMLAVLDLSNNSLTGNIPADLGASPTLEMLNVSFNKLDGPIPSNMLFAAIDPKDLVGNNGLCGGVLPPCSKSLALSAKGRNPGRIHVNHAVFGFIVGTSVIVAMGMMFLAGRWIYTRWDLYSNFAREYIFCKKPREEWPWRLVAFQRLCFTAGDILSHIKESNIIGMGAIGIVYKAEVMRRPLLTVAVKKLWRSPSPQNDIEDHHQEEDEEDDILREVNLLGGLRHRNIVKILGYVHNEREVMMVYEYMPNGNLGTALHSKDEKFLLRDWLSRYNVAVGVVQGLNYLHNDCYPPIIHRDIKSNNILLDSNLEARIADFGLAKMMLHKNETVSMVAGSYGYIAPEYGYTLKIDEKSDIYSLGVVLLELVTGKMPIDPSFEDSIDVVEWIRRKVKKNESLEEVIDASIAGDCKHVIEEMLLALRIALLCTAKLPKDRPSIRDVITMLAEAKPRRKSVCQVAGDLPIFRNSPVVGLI
# [2] = molecular target: T2, PXL2-nLUC (Arabidopsis thaliana) (UniProt Q9M0G7)
# T2 sequence: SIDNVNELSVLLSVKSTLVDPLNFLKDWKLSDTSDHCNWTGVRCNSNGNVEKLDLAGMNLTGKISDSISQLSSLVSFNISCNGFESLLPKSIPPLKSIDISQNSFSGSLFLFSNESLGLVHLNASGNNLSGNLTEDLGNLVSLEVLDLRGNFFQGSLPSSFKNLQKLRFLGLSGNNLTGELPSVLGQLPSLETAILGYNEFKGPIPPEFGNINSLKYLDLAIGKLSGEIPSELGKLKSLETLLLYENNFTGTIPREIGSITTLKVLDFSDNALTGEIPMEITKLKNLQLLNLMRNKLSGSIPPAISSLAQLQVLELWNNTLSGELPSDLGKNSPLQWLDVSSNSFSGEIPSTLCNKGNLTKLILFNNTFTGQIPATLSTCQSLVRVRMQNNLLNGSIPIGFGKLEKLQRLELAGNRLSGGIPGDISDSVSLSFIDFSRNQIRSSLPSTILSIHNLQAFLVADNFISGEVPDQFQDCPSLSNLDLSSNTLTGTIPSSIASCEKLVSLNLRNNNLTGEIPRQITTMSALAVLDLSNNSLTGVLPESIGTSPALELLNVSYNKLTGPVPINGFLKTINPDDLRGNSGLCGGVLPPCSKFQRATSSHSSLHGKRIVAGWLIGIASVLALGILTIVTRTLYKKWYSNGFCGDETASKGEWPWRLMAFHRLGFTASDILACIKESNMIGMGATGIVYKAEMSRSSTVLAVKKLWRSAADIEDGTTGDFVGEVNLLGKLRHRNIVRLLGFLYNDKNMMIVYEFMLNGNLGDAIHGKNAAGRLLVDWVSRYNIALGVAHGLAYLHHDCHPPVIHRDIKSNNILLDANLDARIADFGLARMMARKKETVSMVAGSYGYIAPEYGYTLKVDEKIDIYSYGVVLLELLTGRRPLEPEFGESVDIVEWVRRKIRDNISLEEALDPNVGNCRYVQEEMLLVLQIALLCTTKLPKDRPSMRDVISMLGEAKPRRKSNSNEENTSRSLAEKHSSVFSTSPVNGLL
# [3] = molecular target: T3, PXY-nLUC (Arabidopsis thaliana) (UniProt Q9FII5)
# T3 sequence: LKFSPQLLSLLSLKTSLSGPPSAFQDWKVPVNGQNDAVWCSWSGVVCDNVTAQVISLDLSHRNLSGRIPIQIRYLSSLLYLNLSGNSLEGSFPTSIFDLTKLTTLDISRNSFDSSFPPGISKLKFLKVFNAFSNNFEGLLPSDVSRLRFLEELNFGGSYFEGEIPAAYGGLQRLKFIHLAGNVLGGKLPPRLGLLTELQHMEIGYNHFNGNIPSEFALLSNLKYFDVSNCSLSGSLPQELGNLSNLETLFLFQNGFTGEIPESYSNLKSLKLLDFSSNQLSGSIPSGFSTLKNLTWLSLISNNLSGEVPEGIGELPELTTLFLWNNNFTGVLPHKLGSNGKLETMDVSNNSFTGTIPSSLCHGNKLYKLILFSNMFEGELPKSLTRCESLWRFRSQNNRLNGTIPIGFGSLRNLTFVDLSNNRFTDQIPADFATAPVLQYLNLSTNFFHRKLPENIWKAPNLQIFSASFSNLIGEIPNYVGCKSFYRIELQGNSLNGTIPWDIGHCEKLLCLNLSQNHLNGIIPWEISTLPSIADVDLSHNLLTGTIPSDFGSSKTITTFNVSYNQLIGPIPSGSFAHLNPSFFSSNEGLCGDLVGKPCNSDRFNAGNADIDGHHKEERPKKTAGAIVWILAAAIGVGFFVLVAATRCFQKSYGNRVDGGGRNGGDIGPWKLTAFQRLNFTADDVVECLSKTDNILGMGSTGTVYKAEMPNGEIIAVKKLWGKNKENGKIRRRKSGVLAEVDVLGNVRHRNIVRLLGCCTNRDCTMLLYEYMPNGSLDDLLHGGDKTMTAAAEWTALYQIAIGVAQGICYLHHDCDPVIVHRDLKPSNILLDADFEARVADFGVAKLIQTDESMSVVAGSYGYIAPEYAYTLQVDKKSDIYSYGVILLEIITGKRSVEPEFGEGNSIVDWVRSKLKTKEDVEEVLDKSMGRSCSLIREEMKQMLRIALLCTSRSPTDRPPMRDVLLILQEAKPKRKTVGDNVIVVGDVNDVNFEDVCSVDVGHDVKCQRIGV
Binder,binding [1],binding [2],binding [3]
B1,binds,binds,binds
B2,binds,binds,no binding
B3,binds,binds,binds
